From article PMC7605441
Residue numbers refer to the chain shown, from its start. No constants are given. Whether binding was seen depends on the method and setting. In cells and extracts the contact can be indirect. Some results given as binding are weak or reduced against the parent protein; the word gives no strength. Sequences can lack the tags named with a protein.

Amino acid sequences for entries named in this document (tags omitted).
UniProt Q08297: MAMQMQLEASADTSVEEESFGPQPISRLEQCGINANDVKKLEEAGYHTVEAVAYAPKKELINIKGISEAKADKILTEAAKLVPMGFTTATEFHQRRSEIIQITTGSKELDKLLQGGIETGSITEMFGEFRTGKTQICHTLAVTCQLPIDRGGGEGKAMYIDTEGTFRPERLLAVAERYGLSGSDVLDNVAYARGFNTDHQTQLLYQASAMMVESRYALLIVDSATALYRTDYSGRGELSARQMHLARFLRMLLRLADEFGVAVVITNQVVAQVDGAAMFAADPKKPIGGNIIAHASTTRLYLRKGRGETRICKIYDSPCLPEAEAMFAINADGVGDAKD

Columns and labels:
Assay in all cases: co-IP; GFP-tagged RAD51 co-expressed with mCherry-fused RAD51AP1 (WT or mutant) in 293T/293FT cells; reciprocal immunoprecipitation (lanes 1-10 and lanes 11-20 of Fig. 7e) on protein A-agarose beads with antibody, EBN buffer (0.5% NP40, 150 mM NaCl), 5 h, 4 °C, immunoblot; asynchronous cells, or cells arrested in mitosis with nocodazole (WT only)
[1] = molecular target: T1, murine RAD51AP1 T305D/S309D fused to mCherry (mouse) (UniProt Q8C551)
T1 sequence: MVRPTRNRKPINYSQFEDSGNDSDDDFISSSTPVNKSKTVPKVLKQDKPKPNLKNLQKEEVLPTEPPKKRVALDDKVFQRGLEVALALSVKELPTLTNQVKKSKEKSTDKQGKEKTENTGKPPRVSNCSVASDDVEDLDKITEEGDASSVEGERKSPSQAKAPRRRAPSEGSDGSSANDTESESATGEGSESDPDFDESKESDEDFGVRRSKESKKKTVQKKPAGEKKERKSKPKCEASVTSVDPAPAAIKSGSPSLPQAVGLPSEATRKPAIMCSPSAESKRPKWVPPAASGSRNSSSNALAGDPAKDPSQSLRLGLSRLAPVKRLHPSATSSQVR

[2] = molecular target: T2, wild-type murine RAD51AP1 fused to mCherry (mouse) (UniProt Q8C551)
T2 sequence: T1 sequence with D305T, D309S

[3] = molecular target: T3, murine RAD51AP1 S309D fused to mCherry (mouse) (UniProt Q8C551)
T3 sequence: T1 sequence with D305T

[4] = molecular target: T4, murine RAD51AP1 T305D fused to mCherry (mouse) (UniProt Q8C551)
T4 sequence: T1 sequence with D309S

[5] = molecular target: T5, murine RAD51AP1 S309A fused to mCherry (mouse) (UniProt Q8C551)
T5 sequence: T1 sequence with D305T, D309A

- binding [1]: binds weakly
- binding [2]: binds
- binding [3]: binds
- binding [4]: binds
- binding [5]: binds
Substance: murine RAD51 with a C-terminal EGFP tag (from UniProt Q08297 1-339)
